No constants are given. Whether binding was seen depends on the method and setting. For some of these results: In cells and extracts the contact can be indirect. Some results given as binding are weak or reduced against the parent protein; the word gives no strength.
Experiments:
[1] = target: β2M present in pleural fluid (human (endogenous in pleural fluid)) (UniProt P61769); assay: ELISA
[2] = target: β2M naturally expressed in THP-1 macrophages (human (endogenous in THP-1)) (UniProt P61769); assay: co-IP; only the binder purified

Chains of the proteins cited; added tags and fusions are not shown.
UniProt P61769: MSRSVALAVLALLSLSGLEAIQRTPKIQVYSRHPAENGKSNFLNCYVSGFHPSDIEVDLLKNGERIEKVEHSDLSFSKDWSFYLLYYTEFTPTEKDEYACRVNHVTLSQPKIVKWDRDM
UniProt P9WNK5: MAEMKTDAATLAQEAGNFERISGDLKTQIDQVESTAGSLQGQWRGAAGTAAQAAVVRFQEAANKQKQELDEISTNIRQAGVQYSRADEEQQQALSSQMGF

Substance | binding [1] | binding [2]
ESAT-6 present in pleural fluid of pleural TB patients (from UniProt P9WNK7 1-95) | binds | –
His-tagged CFP-10 (pET23a) (from UniProt P9WNK5 1-100) | – | no binding
recombinant ESAT-6:CFP-10 complex (from UniProt P9WNK7;P9WNK5) | – | binds
recombinant His-tagged ESAT-6 (pET23a-ESAT-6) (from UniProt P9WNK7 1-95) | – | binds
